Results published in the supplement of paper PMC8728848.
This is one part of the list.

Legend:
Assay in all cases: glycan array binding signal (z-score within array); higher = stronger binding
Settings in all cases: glycan notation: IUPAC condensed, linker removed
[1] = target: Fuc(a1-2)Gal6S(b1-3)GlcNAc
Outline: (§1)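 Negative Z-scores can be read as non-binding. The Z-score is calculated within each array and then averaged across arrays of one protein sequence at different concentrations or buffers and across linkers. Arrays, 3228 in all, were curated from the Consortium for Functional Glycomics database and kept only where the protein sequence was available.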

[2] = target: Fuc(a1-2)Gal6S(b1-3)GlcNAc6S
Outline: as §1

Fuc(a1-2)Gal6S(b1-4)Glc = target: Fuc(a1-2)Gal6S(b1-4)Glc
Outline: as §1

[3] = target: Fuc(a1-2)Gal6S(b1-4)Glc6S
Outline: as §1

Fuc(a1-2)[Gal(a1-3)]Gal = target: Fuc(a1-2)[Gal(a1-3)]Gal
Outline: as §1

[4] = target: Fuc(a1-2)[Gal(a1-3)]Gal(b1-3)GalNAc
Outline: as §1

[5] = target: Fuc(a1-2)[Gal(a1-3)]Gal(b1-3)GalNAc(b1-3)Gal(a1-4)Gal(b1-4)Glc
Outline: as §1

[6] = target: Fuc(a1-2)[Gal(a1-3)]Gal(b1-3)GlcNAc
Outline: as §1

[7] = target: Fuc(a1-2)[Gal(a1-3)]Gal(b1-3)GlcNAc(b1-2)Man(a1-3)[Fuc(a1-2)[Gal(a1-3)]Gal(b1-3)GlcNAc(b1-2)Man(a1-6)]Man(b1-4)GlcNAc(b1-4)GlcNAc
Outline: as §1

[8] = target: Fuc(a1-2)[Gal(a1-3)]Gal(b1-3)GlcNAc(b1-2)Man(a1-3)[Fuc(a1-2)[Gal(a1-3)]Gal(b1-3)GlcNAc(b1-2)Man(a1-6)]Man(b1-4)GlcNAc(b1-4)[Fuc(a1-6)]GlcNAc
Outline: as §1

[9] = target: Fuc(a1-2)[Gal(a1-3)]Gal(b1-3)GlcNAc(b1-3)GalNAc
Outline: as §1

[10] = target: Fuc(a1-2)[Gal(a1-3)]Gal(b1-3)GlcNAc(b1-6)GalNAc
Outline: as §1

[11] = target: Fuc(a1-2)[Gal(a1-3)]Gal(b1-4)Glc
Outline: as §1

[12] = target: Fuc(a1-2)[Gal(a1-3)]Gal(b1-4)GlcNAc
Outline: as §1

[13] = target: Fuc(a1-2)[Gal(a1-3)]Gal(b1-4)GlcNAc(b1-2)Man
Outline: as §1

[14] = target: Fuc(a1-2)[Gal(a1-3)]Gal(b1-4)GlcNAc(b1-2)Man(a1-3)[Fuc(a1-2)[Gal(a1-3)]Gal(b1-4)GlcNAc(b1-2)Man(a1-6)]Man(b1-4)GlcNAc(b1-4)GlcNAc
Outline: as §1

[15] = target: Fuc(a1-2)[Gal(a1-3)]Gal(b1-4)GlcNAc(b1-2)Man(a1-3)[Fuc(a1-2)[Gal(a1-3)]Gal(b1-4)GlcNAc(b1-2)Man(a1-6)]Man(b1-4)GlcNAc(b1-4)[Fuc(a1-6)]GlcNAc
Outline: as §1

[16] = target: Fuc(a1-2)[Gal(a1-3)]Gal(b1-4)GlcNAc(b1-3)GalNAc
Outline: as §1

[17] = target: Fuc(a1-2)[Gal(a1-3)]Gal(b1-4)GlcNAc(b1-3)[Fuc(a1-2)[Gal(a1-3)]Gal(b1-4)GlcNAc(b1-6)]GalNAc
Outline: as §1

[18] = target: Fuc(a1-2)[Gal(a1-3)]Gal(b1-4)GlcNAc(b1-6)GalNAc
Outline: as §1

[19] = target: Fuc(a1-2)[Gal(a1-3)]Gal(b1-4)[Fuc(a1-3)]Glc
Outline: as §1

[20] = target: Fuc(a1-2)[Gal(a1-3)]Gal(b1-4)[Fuc(a1-3)]GlcNAc
Outline: as §1

[21] = target: Fuc(a1-2)[Gal(a1-3)]Gal(b1-4)[Fuc(a1-3)]GlcNAc(b1-3)GalNAc
Outline: as §1

[22] = target: Fuc(a1-2)[Gal(a1-4)]Gal(b1-4)GlcNAc
Outline: as §1

[23] = target: Fuc(a1-2)[GalNAc(a1-3)]Gal
Outline: as §1

[24] = target: Fuc(a1-2)[GalNAc(a1-3)]Gal(b1-3)GalNAc(a1-3)[Fuc(a1-2)]Gal(b1-4)GlcNAc
Outline: as §1

[25] = target: Fuc(a1-2)[GalNAc(a1-3)]Gal(b1-3)GalNAc(b1-3)Gal(a1-4)Gal(b1-4)Glc
Outline: as §1

[26] = target: Fuc(a1-2)[GalNAc(a1-3)]Gal(b1-3)GlcNAc
Outline: as §1

[27] = target: Fuc(a1-2)[GalNAc(a1-3)]Gal(b1-3)GlcNAc(b1-2)Man(a1-3)[Fuc(a1-2)[GalNAc(a1-3)]Gal(b1-3)GlcNAc(b1-2)Man(a1-6)]Man(b1-4)GlcNAc(b1-4)GlcNAc
Outline: as §1

[28] = target: Fuc(a1-2)[GalNAc(a1-3)]Gal(b1-3)GlcNAc(b1-2)Man(a1-3)[Fuc(a1-2)[GalNAc(a1-3)]Gal(b1-3)GlcNAc(b1-2)Man(a1-6)]Man(b1-4)GlcNAc(b1-4)[Fuc(a1-6)]GlcNAc
Outline: as §1

[29] = target: Fuc(a1-2)[GalNAc(a1-3)]Gal(b1-3)GlcNAc(b1-3)GalNAc
Outline: as §1

[30] = target: Fuc(a1-2)[GalNAc(a1-3)]Gal(b1-3)GlcNAc(b1-6)GalNAc
Outline: as §1

[31] = target: Fuc(a1-2)[GalNAc(a1-3)]Gal(b1-4)Glc
Outline: as §1

[32] = target: Fuc(a1-2)[GalNAc(a1-3)]Gal(b1-4)GlcNAc
Outline: as §1

[33] = target: Fuc(a1-2)[GalNAc(a1-3)]Gal(b1-4)GlcNAc(b1-2)Man
Outline: as §1

[34] = target: Fuc(a1-2)[GalNAc(a1-3)]Gal(b1-4)GlcNAc(b1-2)Man(a1-3)[Fuc(a1-2)[GalNAc(a1-3)]Gal(b1-4)GlcNAc(b1-2)Man(a1-6)]Man(b1-4)GlcNAc(b1-4)GlcNAc
Outline: as §1

[35] = target: Fuc(a1-2)[GalNAc(a1-3)]Gal(b1-4)GlcNAc(b1-2)Man(a1-3)[Fuc(a1-2)[GalNAc(a1-3)]Gal(b1-4)GlcNAc(b1-2)Man(a1-6)]Man(b1-4)GlcNAc(b1-4)[Fuc(a1-6)]GlcNAc
Outline: as §1

[36] = target: Fuc(a1-2)[GalNAc(a1-3)]Gal(b1-4)GlcNAc(b1-3)Gal(b1-4)GlcNAc
Outline: as §1

[37] = target: Fuc(a1-2)[GalNAc(a1-3)]Gal(b1-4)GlcNAc(b1-3)Gal(b1-4)GlcNAc(b1-3)Gal(b1-4)GlcNAc
Outline: as §1

[38] = target: Fuc(a1-2)[GalNAc(a1-3)]Gal(b1-4)GlcNAc(b1-3)GalNAc
Outline: as §1

[39] = target: Fuc(a1-2)[GalNAc(a1-3)]Gal(b1-4)GlcNAc(b1-3)[Fuc(a1-2)[GalNAc(a1-3)]Gal(b1-4)GlcNAc(b1-6)]GalNAc
Outline: as §1

[40] = target: Fuc(a1-2)[GalNAc(a1-3)]Gal(b1-4)GlcNAc(b1-6)GalNAc
Outline: as §1

[41] = target: Fuc(a1-2)[GalNAc(a1-3)]Gal(b1-4)[Fuc(a1-3)]GlcNAc
Outline: as §1

[42] = target: Fuc(a1-2)[GalNAc(a1-3)]Gal(b1-4)[Fuc(a1-3)]GlcNAc(b1-3)GalNAc
Outline: as §1

[43] = target: Fuc(a1-2)[GalNAc(a1-4)]Gal(b1-4)GlcNAc
Outline: as §1

B1: CBP21 (Serratia marcescens), O83009 (protein)
chain: MNKTSRTLLSLGLLSAAMFGVSQQANAHGYVESPASRAYQCKLQLNTQCGSVQYEPQSVEGLKGFPQAGPADGHIASADKSTFFELDQQTPTRWNKLNLKTGPNSFTWKLTARHSTTSWRYFITKPNWDASQPLTRASFDLTPFCQFNDGGAIPAAQVTHQCNIPADRSGSHVILAVWDIADTANAFYQAIDVNLSK
glycan array binding signal (z-score) [1]: -0.19 | glycan array binding signal (z-score) [2]: 0.672 | glycan array binding signal (z-score) (Fuc(a1-2)Gal6S(b1-4)Glc): 0.884 | glycan array binding signal (z-score) [3]: -0.162 | glycan array binding signal (z-score) (Fuc(a1-2)[Gal(a1-3)]Gal): -0.062 | glycan array binding signal (z-score) [4]: 0.134 | glycan array binding signal (z-score) [5]: -1.6 | glycan array binding signal (z-score) [6]: 0.005 | glycan array binding signal (z-score) [7]: -0.227 | glycan array binding signal (z-score) [8]: -0.105 | glycan array binding signal (z-score) [9]: 0.688 | glycan array binding signal (z-score) [10]: 1.32 | glycan array binding signal (z-score) [11]: 0.719 | glycan array binding signal (z-score) [12]: 0.785 | glycan array binding signal (z-score) [13]: 0.499 | glycan array binding signal (z-score) [14]: 1.68 | glycan array binding signal (z-score) [15]: -0.391 | glycan array binding signal (z-score) [16]: 1.1 | glycan array binding signal (z-score) [17]: 2.99 | glycan array binding signal (z-score) [18]: 1.44 | glycan array binding signal (z-score) [19]: -1.78 | glycan array binding signal (z-score) [20]: 0.488 | glycan array binding signal (z-score) [21]: -0.443 | glycan array binding signal (z-score) [22]: 1.14 | glycan array binding signal (z-score) [23]: -0.049 | glycan array binding signal (z-score) [24]: 0.456 | glycan array binding signal (z-score) [25]: 0.463 | glycan array binding signal (z-score) [26]: 1.07 | glycan array binding signal (z-score) [27]: 0.241 | glycan array binding signal (z-score) [28]: -0.672 | glycan array binding signal (z-score) [29]: 0.326 | glycan array binding signal (z-score) [30]: -1.9 | glycan array binding signal (z-score) [31]: -0.513 | glycan array binding signal (z-score) [32]: -0.947 | glycan array binding signal (z-score) [33]: -0.329 | glycan array binding signal (z-score) [34]: 0.431 | glycan array binding signal (z-score) [35]: -0.038 | glycan array binding signal (z-score) [36]: 1.41 | glycan array binding signal (z-score) [37]: 0.507 | glycan array binding signal (z-score) [38]: -1.09 | glycan array binding signal (z-score) [39]: 0.431 | glycan array binding signal (z-score) [40]: 0.411 | glycan array binding signal (z-score) [41]: 2.38 | glycan array binding signal (z-score) [42]: -1.22 | glycan array binding signal (z-score) [43]: -1.03
